US20250325529A1, “INHIBITORS OF FATTY ACID BINDING PROTEINS (FABPs), METHODS OF USE AND METHODS OF MAKING” (Celloram, inc., priority 2024, published 2025)
The source gives many values for each of these; only a part stands here.

Assays:
[1] = test system: Salmonella typhimurium tester strain TA100; test: Ames test (Bacterial Reverse Mutation Test), TA100; type: cell-based
Protocol: (§1) PD152 (compound 2) was tested for genotoxic and cytotoxic side effects by Ames test. The Ames test is a Bacterial Reverse Mutation Test of mutagenicity that utilizes Salmonella typhimurium tester strains TA98, TA100, TA1535, TA1537 and Escherichia coli tester strain WP2 uvrA (pKM101), both in the presence and absence of S9.
(§2) The compound PD152 was tested at 10 concentrations (0.032-1000 μg/plate) in the presence of, or absence of, the hepatic enzyme S9.
The aniline FABP4/5 inhibitor compound, 2-((2-((2,4-dichloro-5-isopropoxyphenyl)amino)-2-oxoethyl)thio)-2-methylpropanoic acid (compound “B104” as disclosed in WO2023043803A1) also was tested for genotoxic and cytotoxic side effects by Ames test. B104 was tested using the Salmonella typhimurium tester stains TA98, TA100, TA1535, and TA1537, both in the presence and absence of the hepatic enzyme S9, at 5 concentrations (1.5-64 μg/plate).

[2] = test system: Salmonella typhimurium tester strain TA98; test: Ames test (Bacterial Reverse Mutation Test), TA98; type: cell-based
Protocol: as §1, §2
The aniline FABP4/5 inhibitor compound, 2-((2-((2,4-dichloro-5-isopropoxyphenyl)amino)-2-oxoethyl)thio)-2-methylpropanoic acid (compound “B104” as disclosed in WO2023043803A1) also was tested for genotoxic and cytotoxic side effects by Ames test. […]

[3] = TA100, absence of S9, 0.0312 μg/plate
[4] = TA100, absence of S9, 0.1 μg/plate
[5] = TA100, absence of S9, 0.316 μg/plate
[6] = TA100, absence of S9, 1 μg/plate
[7] = TA100, absence of S9, 3.16 μg/plate
[8] = TA100, absence of S9, 10 μg/plate
[9] = TA100, absence of S9, 31.6 μg/plate
[10] = TA100, absence of S9, 100 μg/plate
[11] = TA100, absence of S9, 316 μg/plate
[12] = TA100, absence of S9, 1000 μg/plate
[13] = TA100, presence of S9, 0.0312 μg/plate
[14] = TA100, presence of S9, 0.1 μg/plate
[15] = TA100, presence of S9, 0.316 μg/plate
[16] = TA100, presence of S9, 1 μg/plate
[17] = TA100, presence of S9, 3.16 μg/plate
[18] = TA100, presence of S9, 10 μg/plate
[19] = TA100, presence of S9, 31.6 μg/plate
[20] = TA100, presence of S9, 100 μg/plate
[21] = TA100, presence of S9, 316 μg/plate
[22] = TA100, presence of S9, 1000 μg/plate
[23] = TA98, absence of S9, 0.0312 μg/plate
[24] = TA98, absence of S9, 0.1 μg/plate
[25] = TA98, absence of S9, 0.316 μg/plate
[26] = TA98, absence of S9, 1 μg/plate
[27] = TA98, absence of S9, 3.16 μg/plate
[28] = TA98, absence of S9, 10 μg/plate
[29] = TA98, absence of S9, 31.6 μg/plate
[30] = TA98, absence of S9, 100 μg/plate
[31] = TA98, absence of S9, 316 μg/plate
[32] = TA98, absence of S9, 1000 μg/plate

CC(C)Oc1nc(NC(=O)CSCC(=O)O)c(Cl)cc1Cl [PD152, 2-((2-((3,5-dichloro-6-isopropoxypyridin-2-yl)amino)-2-oxoethyl)thio)acetic acid]
Fold increase [1, 3]: 1 | Mean number of revertants [1, 3]: 39 | Fold increase [1, 4]: 1 | Mean number of revertants [1, 4]: 39 | Fold increase [1, 5]: 1 | Mean number of revertants [1, 5]: 40 | Fold increase [1, 6]: 1 | Mean number of revertants [1, 6]: 39 | Fold increase [1, 7]: 1 | Mean number of revertants [1, 7]: 39 | Fold increase [1, 8]: 1 | Mean number of revertants [1, 8]: 40 | Fold increase [1, 9]: 1 | Mean number of revertants [1, 9]: 40 | Fold increase [1, 10]: 1 | Mean number of revertants [1, 10]: 39 | Fold increase [1, 11]: 1 | Mean number of revertants [1, 11]: 40 | Fold increase [1, 12]: 1 | Mean number of revertants [1, 12]: 40 | Fold increase [1, 13]: 1 | Mean number of revertants [1, 13]: 40 | Fold increase [1, 14]: 1 | Mean number of revertants [1, 14]: 40 | Fold increase [1, 15]: 1 | Mean number of revertants [1, 15]: 40 | Fold increase [1, 16]: 1 | Mean number of revertants [1, 16]: 39 | Fold increase [1, 17]: 1 | Mean number of revertants [1, 17]: 40 | Fold increase [1, 18]: 1 | Mean number of revertants [1, 18]: 39 | Fold increase [1, 19]: 1 | Mean number of revertants [1, 19]: 40 | Fold increase [1, 20]: 1 | Mean number of revertants [1, 20]: 38 | Fold increase [1, 21]: 1 | Mean number of revertants [1, 21]: 40 | Fold increase [1, 22]: 1 | Mean number of revertants [1, 22]: 39 | Fold increase [2, 23]: 1 | Mean number of revertants [2, 23]: 5 | Fold increase [2, 24]: 1 | Mean number of revertants [2, 24]: 6 | Fold increase [2, 25]: 1 | Mean number of revertants [2, 25]: 6 | Fold increase [2, 26]: 1 | Mean number of revertants [2, 26]: 6 | Fold increase [2, 27]: 1 | Mean number of revertants [2, 27]: 6 | Fold increase [2, 28]: 1 | Mean number of revertants [2, 28]: 6 | Fold increase [2, 29]: 1 | Mean number of revertants [2, 29]: 5 | Fold increase [2, 30]: 1 | Mean number of revertants [2, 30]: 6 | Fold increase [2, 31]: 1 | Mean number of revertants [2, 31]: 6 | Fold increase [2, 32]: 1 | Mean number of revertants [2, 32]: 6
